Measured values as given in publication doi:10.1101/2024.06.14.24308555.
No constants are given. Whether binding was seen depends on the method and setting. In cells and extracts the contact can be indirect. A yes stands for co-enrichment or nearness to the bait. Other partners may have been found. Sequences can lack the tags named with a protein.

Target: T1, Flag-GFP-tagged IRF9 (F-G-IRF9) (human) (UniProt Q00978)
T1 sequence: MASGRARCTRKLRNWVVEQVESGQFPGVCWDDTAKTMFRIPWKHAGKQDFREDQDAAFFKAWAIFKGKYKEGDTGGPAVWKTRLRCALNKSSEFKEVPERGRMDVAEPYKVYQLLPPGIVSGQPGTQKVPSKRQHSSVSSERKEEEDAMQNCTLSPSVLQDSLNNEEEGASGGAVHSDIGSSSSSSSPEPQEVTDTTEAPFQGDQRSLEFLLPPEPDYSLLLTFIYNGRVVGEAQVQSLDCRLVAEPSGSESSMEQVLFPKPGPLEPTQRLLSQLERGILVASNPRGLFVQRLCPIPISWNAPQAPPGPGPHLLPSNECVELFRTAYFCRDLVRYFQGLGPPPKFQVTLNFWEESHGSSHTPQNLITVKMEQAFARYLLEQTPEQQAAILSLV
Experiment: affinity purification with mass spectrometry

B1: PTP1B, endogenous (enzyme, UniProt P18031 1-435)
chain: MEMEKEFEQIDKSGSWAAIYQDIRHEASDFPCRVAKLPKNKNRNRYRDVSPFDHSRIKLHQEDNDYINASLIKMEEAQRSYILTQGPLPNTCGHFWEMVWEQKSRGVVMLNRVMEKGSLKCAQYWPQKEEKEMIFEDTNLKLTLISEDIKSYYTVRQLELENLTTQETREILHFHYTTWPDFGVPESPASFLNFLFKVRESGSLSPEHGPVVVHCSAGIGRSGTFCLADTCLLLMDKRKDPSSVDIKKVLLEMRKFRMGLIQTADQLRFSYLAVIEGAKFIMGDSSVQDQWKELSHEDLEPPPEHIPPPPRPPKRILEPHNGKCREFFPNHQWVKEETQEDKDCPIKEEKGSPLNAAPYGIESMSQDTEVRSRVVGGSLRGAQAASPAKGEPSLPEKDEDHALSYWKPFLVNMCVATVLTAGAYLCYRFLFNSNT
With B1 the binding was “binds”.
